Measured values from paper PMC12307474.
These are yes or no findings as the source states them, for the method shown. Binding seen in cells or lysates may run through a third protein. Some entries that bind do so weakly or less than the wild type.

Amino acid sequences for entries named in this document (tags omitted).
UniProt P31939: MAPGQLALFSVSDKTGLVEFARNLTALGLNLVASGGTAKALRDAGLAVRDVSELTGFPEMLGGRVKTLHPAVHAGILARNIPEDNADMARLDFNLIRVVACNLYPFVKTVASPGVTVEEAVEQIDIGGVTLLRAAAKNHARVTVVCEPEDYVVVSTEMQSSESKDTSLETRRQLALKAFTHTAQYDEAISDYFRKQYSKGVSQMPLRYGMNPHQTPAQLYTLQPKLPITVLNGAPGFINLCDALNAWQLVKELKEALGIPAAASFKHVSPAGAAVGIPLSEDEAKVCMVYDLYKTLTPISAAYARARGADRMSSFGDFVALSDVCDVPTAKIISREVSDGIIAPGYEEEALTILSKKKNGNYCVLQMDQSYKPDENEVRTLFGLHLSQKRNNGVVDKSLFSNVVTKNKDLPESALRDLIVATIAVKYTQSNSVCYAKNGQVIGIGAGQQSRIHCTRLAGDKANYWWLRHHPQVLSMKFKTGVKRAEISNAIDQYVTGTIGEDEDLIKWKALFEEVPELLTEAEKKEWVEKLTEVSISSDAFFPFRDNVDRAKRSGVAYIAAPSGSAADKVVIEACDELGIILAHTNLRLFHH

Target: T1, Serine hydroxymethyltransferase, cytoplasmic isoenzyme (SHMT1) (human (endogenous in T24)) (UniProt P34896)
T1 sequence: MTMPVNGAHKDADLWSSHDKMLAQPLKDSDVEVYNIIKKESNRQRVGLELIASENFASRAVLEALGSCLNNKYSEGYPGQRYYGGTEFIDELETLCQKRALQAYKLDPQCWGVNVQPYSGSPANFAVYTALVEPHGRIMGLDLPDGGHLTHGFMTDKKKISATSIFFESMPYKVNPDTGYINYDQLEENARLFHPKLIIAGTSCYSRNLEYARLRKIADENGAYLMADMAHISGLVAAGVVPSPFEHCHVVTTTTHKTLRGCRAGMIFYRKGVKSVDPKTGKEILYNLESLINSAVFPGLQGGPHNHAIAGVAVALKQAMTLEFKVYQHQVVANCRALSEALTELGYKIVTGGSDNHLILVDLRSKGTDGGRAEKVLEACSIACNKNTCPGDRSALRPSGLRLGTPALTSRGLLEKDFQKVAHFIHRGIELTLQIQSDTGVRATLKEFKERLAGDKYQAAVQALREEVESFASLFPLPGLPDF
Test: co-IP; T24 cells lysed in IP lysis buffer; Protein A/G Sepharose with anti-SHMT1 antibody and anti-ATIC antibody, 4°C overnight, beads washed three times with lysis buffer; western blot of the immunoprecipitates

**Q.** “5-aminoimidazole-4-carboxamide ribonucleotide formyltransferase/IMP cyclohydrolase (ATIC) (from UniProt P31939 1-592)” was tested. Which binding did it give?
**A.** binds
